# According to PubChem BioAssay AID540276 (National Center for Advancing Translational Sciences (NCATS), 2011):
# About 5,400 (1.8%) of roughly 300,000 compounds were called active. Inconclusive means that the source gave no clear call. Such entries were picked first, then a sample of the others. Calls follow the shape of the full dose curve; tested in HEK293 cells. Where the call is inconclusive, the potency comes from a doubtful curve fit.
# Assay: qHTS for inhibitors of binding or entry into cells for Marburg Virus
# Settings: Marburg virus pseudotyped entry inhibition, cell reporter; activity change, negative = inhibition: at 37.8 µM (top of the series) unless noted
# % is scaled to controls: 0 for no effect and ±100 for the full control effect; potency is read from the fitted curve at half-maximal effect.
Compound,Potency,"activity change, negative = inhibition"
CCCC(=O)NCc1nc2ccccc2n1C,"inconclusive: 3.66 µM [inhibitor, single point]",
CC(=O)Nc1nc(C)nc(-c2ccccc2OC(C)=O)n1,"inconclusive: 29.1 µM [activator, single point]",
COc1ccc(CN(C)C(C)C(=O)Nc2ccc(S(=O)(=O)N3CCCCC3)cc2)c(OC)c1 (stereo not drawn),"inconclusive: 15.8 µM [inhibitor, partial curve, poor fit]",
CCC(=O)c1ccc(OCC(=O)Nc2nc(-c3cccnc3)cs2)cc1,,inactive: 1.76%
CCN(CC)S(=O)(=O)c1ccc2c(c1)[nH]c(=S)n2CC,"inconclusive: 1.26 µM [inhibitor, full curve, poor fit]",
CCOc1ccc(-n2ccnc2SCC(=O)Nc2nnc(CC)s2)cc1,"inconclusive: 3.55 µM [inhibitor, partial curve, poor fit]",
CCc1ccc(N2C(=O)Nc3ccc(Br)cc3C2(O)C(=O)NCCN(C)C)cc1 (stereo not drawn),"inconclusive: 2.51 µM [inhibitor, partial curve]",
O=C(CCC1COc2ccccc2O1)NC1CCCCC1 (stereo not drawn),"inconclusive: 18.3 µM [activator, single point]",
CCSc1nc2ccc(N3C(=O)C4C5C=CC(C5)C4C3=O)cc2s1 (stereo not drawn),"inconclusive: 3.55 µM [activator, single point]",
C/C(CC(=O)Nc1ccc2c(c1)OCO2)=N\NC(=O)c1ccccc1N,,inactive: 23.9% [at 14.2 µM]
COC(=O)c1ccccc1S(=O)(=O)N(Cc1cc2ccc(OC)cc2[nH]c1=O)CC1CCCO1 (stereo not drawn),,inactive: -15.2%
FC(F)Sc1ccc(NC(=S)NC(c2ccccc2)c2ccccc2)cc1,active: 18.3 µM,
COc1cc(C2C(C#N)=C(N)Oc3c2ccc2ccccc32)ccc1OCC(=O)Nc1cccc(C)c1 (stereo not drawn),"inconclusive: 6.31 µM [inhibitor, full curve, poor fit]",
CCCCNC(=S)Nc1cc([N+](=O)[O-])ccc1C,"inconclusive: 1 µM [inhibitor, partial curve, poor fit]",
COc1cc(NC(=O)CSc2nc3ccccc3n2-c2ccccc2)c(C)cc1[N+](=O)[O-],"inconclusive: 8.2 µM [inhibitor, partial curve, poor fit]",
Cc1ccc2c(Cl)c(C(=O)NCC3CCCO3)sc2c1 (stereo not drawn),"inconclusive: 1.03 µM [activator, single point]",
Cc1cc(C)n2cc(COc3ccccc3)nc2n1,"inconclusive: 1 µM [activator, full curve, poor fit]",
O=C(Cc1cccs1)Nc1nc(-c2ccccc2)cs1,"inconclusive: 20.6 µM [inhibitor, single point]",
CCc1nc(C)cn1S(=O)(=O)c1ccc(Cl)c(Cl)c1Cl,"inconclusive: 2 µM [inhibitor, full curve]",
O=C(O)c1ccc(Cl)cc1Nc1nc2cc(Cl)ccc2o1,"inconclusive: 31.6 µM [activator, single point]",
C=CCN(c1ccccc1)S(=O)(=O)c1cccc(C(=O)NCc2ccncc2)c1,"inconclusive: 11.2 µM [inhibitor, partial curve]",
O=C(OCC(=O)N1CCOCC1)c1ccc(Cl)c(S(=O)(=O)N2CCc3ccccc32)c1,"inconclusive: 35.5 µM [inhibitor, single point]",

Compound,Potency,"activity change, negative = inhibition"
CC(=O)Nc1ccccc1N(CC(O)Cn1c2ccccc2c2ccccc21)S(=O)(=O)c1ccc(C)cc1 (stereo not drawn),"inconclusive: 7.08 µM [inhibitor, full curve, poor fit]",
COc1ccc([N+](=O)[O-])cc1NS(=O)(=O)c1cccc(C(=O)OC2CCOC2=O)c1 (stereo not drawn),,inactive: -9.95%
COc1ccc(NC(=O)c2ccco2)cc1NC(=O)c1c(OC)cccc1OC,inactive,
CCN(CC)c1ccc(/C=N/NC(=S)NCc2ccco2)cc1,"inconclusive: 1.26 µM [inhibitor, partial curve, poor fit]",
CNc1ccc(Br)cc(C(=O)/C=C/c2cccc(OC)c2OC)c1=O,,inactive: 10.6%
O=C(COc1ccc2ccccc2c1)N1CCCC1,"inconclusive: 0.411 µM [activator, full curve]",
COC(=O)c1ccc(C(=O)OC)c(NC(=O)CS(=O)(=O)Cc2ccccc2)c1,"inconclusive: 1.26 µM [inhibitor, partial curve, poor fit]",
Cc1cc(N)n2ncc(-c3ccccc3)c2n1,"inconclusive: 5.62 µM [activator, single point]",
COc1ccccc1/C=C/CN1CCSCC1,,inactive: -8.85%
O=C(c1ccc(Cl)c(Cl)c1)N1CCC(=O)N(C(COCc2ccc(Cl)cc2)Cc2ccccc2)CC1 (stereo not drawn),"inconclusive: 4.61 µM [inhibitor, single point]",
CC(=O)c1ccc(N2CCN(C(=O)Nc3ccc(C(C)C)cc3)CC2)cc1,active: 3.16 µM,
Cc1ccc(-c2csc(NC(=S)NC(=O)/C=C/c3ccco3)n2)cc1,"inconclusive: 18.3 µM [inhibitor, partial curve, poor fit]",
COC(=O)CNC(c1ccccc1)c1cc(Br)ccc1NS(=O)(=O)c1ccccc1 (stereo not drawn),"inconclusive: 18.4 µM [inhibitor, partial curve, poor fit]",
CCN(CC)N=Nc1[nH]nc2nc(C)cc(C)c12,,inactive: 10.5%
CC(C)c1ccc2occ(CC(=O)N(Cc3ccc(F)cc3)C3CCS(=O)(=O)C3)c2c1 (stereo not drawn),,inactive: -26.9% [at 46.1 µM]
Cc1ccccc1OCC(=O)OCC(=O)Nc1cc(S(C)(=O)=O)ccc1Cl,"inconclusive: 12.6 µM [activator, single point]",
COc1ccc(Oc2ncc(CN3CCN(c4ccccc4)CC3)s2)cc1,,inactive: 3.75%
Cc1cc(C(=O)CSc2nncn2C)c(C)n1-c1ccccc1,"inconclusive: 2.82 µM [activator, partial curve, poor fit]",
O=C(CSC(=S)N1CCCC1)NCCc1ccccc1,"inconclusive: 2.82 µM [inhibitor, single point]",
C=CCOC(=O)c1ccc(-n2cnc(C)n2)nc1,"inconclusive: 2.24 µM [activator, full curve]",
CCOc1ccc(C(C(=O)NCC2CCCO2)N(C(=O)c2snc(C(N)=O)c2N)c2ccccc2F)cc1 (stereo not drawn),"inconclusive: 1.26 µM [inhibitor, full curve, poor fit]",

# Reformatted tab-delimited: two of the compounds above.
Compound	Potency	activity change, negative = inhibition
COc1ccc([N+](=O)[O-])cc1NS(=O)(=O)c1cccc(C(=O)OC2CCOC2=O)c1 (stereo not drawn)		inactive: -9.95%
COc1ccc(NC(=O)c2ccco2)cc1NC(=O)c1c(OC)cccc1OC	inactive	
